The source of these data is PubChem BioAssay AID330 (DTP/NCI, 2004).

The list is a part of this screen's results and no random one: it gathers tests that were run many times, whatever their T/C, doses with no T/C, and many T/C values between a quarter and a half above the control. Other doses and runs of a compound stand elsewhere. T/C is the treated group as % of the vehicle group. Some doses have a count of surviving animals in place of a T/C: the source files T/C as zero there, which appears to mark a toxic dose or a test without result, not a measured value. Some doses without a T/C left all or most animals alive at the check, yet need not have been tolerated: survival well below the control is almost never listed, so the zero probably covers shortened survival too. Counts of survivors are from the toxicity check (mostly the fifth day) where no day follows; animals may have died later. Schedules are NCI's codes, read here as Q, the interval in days (D) or hours (H), X, the number of doses. For survival time, the PubChem record calls one and a half times the control and up active, and a quarter to a half above the control has no call in these data; cut-offs in other NCI protocols can differ. Signs of the kind (2×) stand for listed records that agree. Some T/C values carry the count of animals alive at the toxicity check (mostly the fifth day); where none is given, no animal had died by that day.

This assay has as its system P388 leukemia ip, CD2F1 mice, survival T/C. In words: NCI In Vivo Anticancer Drug Screen. Data for tumor model P388 Leukemia (intraperitoneal) in CD2F1 (CDF1) mice. The note with it: T/C endpoint: median survival time, higher T/C = longer survival.
Setting [1] is: dose: 60.0 mg/kg/injection, schedule: Q01DX005 (ip), vehicle: saline with Tween-80.
Setting [2] is: dose: 120.0 mg/kg/injection, schedule: Q01DX005 (ip), vehicle: saline with Tween-80.
[3] abbreviates: dose: 50.0 mg/kg/injection, schedule: Q01DX005 (ip), vehicle: saline with Tween-80.
[4] abbreviates: dose: 100.0 mg/kg/injection, schedule: Q01DX005 (ip), vehicle: saline with Tween-80.
Setting [5] is: dose: 200.0 mg/kg/injection, schedule: Q01DX005 (ip), vehicle: saline with Tween-80.
The mark [6] stands for this setting: dose: 25.0 mg/kg/injection, schedule: Q01DX009 (ip), vehicle: saline.
Setting [7] is: dose: 50.0 mg/kg/injection, schedule: Q01DX009 (ip), vehicle: saline.
The mark [8] stands for this setting: dose: 200.0 mg/kg/injection, schedule: Q01DX009 (ip), vehicle: saline with Tween-80.
Setting [9] is: dose: 400.0 mg/kg/injection, schedule: Q01DX001 (ip), vehicle: saline with Tween-80.
Setting [10] is: dose: 200.0 mg/kg/injection, schedule: Q01DX005 (ip), vehicle: Klucel (hydroxypropylcellulose) (HPC).
Where [11] appears, read: dose: 200.0 mg/kg/injection, schedule: Q04DX002 (ip), vehicle: Klucel (hydroxypropylcellulose) (HPC).
The mark [12] stands for this setting: dose: 400.0 mg/kg/injection, schedule: Q04DX002 (ip), vehicle: Klucel (hydroxypropylcellulose) (HPC).
The mark [13] stands for this setting: dose: 120.0 mg/kg/injection, schedule: Q01DX005 (ip), vehicle: Klucel (hydroxypropylcellulose) (HPC).
Setting [14] is: dose: 240.0 mg/kg/injection, schedule: Q01DX005 (ip), vehicle: Klucel (hydroxypropylcellulose) (HPC).
Where [15] appears, read: dose: 240.0 mg/kg/injection, schedule: Q01DX005 (ip), vehicle: saline with Tween-80.
[16] abbreviates: dose: 200.0 mg/kg/injection, schedule: Q01DX005 (ip), vehicle: saline.
The mark [17] stands for this setting: dose: 100.0 mg/kg/injection, schedule: Q04DX002 (ip), vehicle: saline with Tween-80.
Setting [18] is: dose: 200.0 mg/kg/injection, schedule: Q04DX003 (ip), vehicle: saline.

As for `COc1cc(OC)c(/C=N/NC(=S)NC23CC4CC(CC(C4)C2)C3)c(OC)c1`, the survivor count was 6 of 6 under setting [1] and 6 of 6 under setting [2].
As to `CN(C)c1ccc(N=NN=c2n(C)c3ccccc3n2C)c(Cl)c1`, the survivor count under setting [3] is 2 of 6, the survivor count under setting [4] is recorded as 0 of 6 and the survivor count under setting [5] is 0 of 6.
Turning to `C/C(N=NC(=S)N1CCSCC1)=C1\C=CC=CN1O`, the survivor count under setting [4] was 3 of 6.
As to `CCCCN(CCCC)CC(O)c1ccc(F)c2ccccc12` (stereo not given), under setting [5], the survivor count is listed as 0 of 5.
Consider `C[N+]1(Cc2ccccc2)C2CCC1C(CCl)C(O)C2` (stereo not given), for which the survivor count is, setting by setting: under setting [6], 5 of 6; under setting [7], 0 of 6.
As for `O=C1OCC/C1=C\c1ccco1`, the survivor count (dose: 200.0 mg/kg/injection, schedule: Q01DX005 (ip), vehicle: acetone) is reported as 0 of 5.
Turning to `CCCCc1n(O)c(-c2ccccc2)c(C)[n+]1[O-]`, the survivor count reads like this: (dose: 100.0 mg/kg/injection, schedule: Q01DX009 (ip), vehicle: saline with Tween-80) 6 of 6; under setting [8], 4 of 6.
In the case of `O=c1nc2n(CC(O)C(O)C(O)C(O)CO)c3cc(Cl)c(Cl)cc3nc-2c(=O)[nH]1` (stereo not given), under setting [5], the survivor count was 2 of 6.
On to `CC(C)c1ccc(C2C3CCN2CC3)cc1` (stereo not given), for which the survivor count (dose: 100.0 mg/kg/injection, schedule: Q01DX009 (ip), vehicle: saline) is given as 0 of 6 and the survivor count (dose: 200.0 mg/kg/injection, schedule: Q01DX009 (ip), vehicle: saline) is recorded as 0 of 6.
`O=C(O)c1ccnc(C(=O)O)c1`: the survivor count under setting [9] is 3 of 6.
For `O=S(=O)(F)C(Br)(Br)S(=O)(=O)F`, the survivor count under setting [10] is recorded as 2 of 6.
As for `ClCCc1nc(C(Cl)(Cl)Cl)nc(C(Cl)(Cl)Cl)n1`, the survivor count is, setting by setting: (dose: 100.0 mg/kg/injection, schedule: Q04DX002 (ip), vehicle: Klucel (hydroxypropylcellulose) (HPC)) 0 of 6; under setting [11], 0 of 6; under setting [12], 0 of 6.
As to `CNC(=S)NC(C)(C)C`, the survivor count is, setting by setting: under setting [13], 0 of 6; under setting [14], 0 of 6.
Consider `O=[N+]([O-])c1cc(CN(CCO)CCO)c(O)c2ncccc12`, for which, under setting [15], the survivor count is 0 of 6.
As for `O=C(O)c1cc2ccc3cccc4ccc(c1)c2c34`, the T/C under setting [5] was 135 % of control [4 of 5 alive].
Take `c1ccc2c(N3CCCCC3)ncnc2c1`: the survivor count under setting [16] is listed as 0 of 5.
Turning to `Clc1cc(Cl)c(C[N+]23CN4CN(CN(C4)C2)C3)cc1Cl`, the T/C is, setting by setting: (dose: 50.0 mg/kg/injection, schedule: Q01DX009 (ip), vehicle: saline with Tween-80) 130 % of control; (dose: 100.0 mg/kg/injection, schedule: Q01DX009 (ip), vehicle: saline with Tween-80, evaluated on day 20) 140 % of control; (dose: 100.0 mg/kg/injection, schedule: Q01DX009 (ip), vehicle: saline with Tween-80, evaluated on day 30) 132 % of control; (dose: 200.0 mg/kg/injection, schedule: Q01DX009 (ip), vehicle: saline with Tween-80, evaluated on day 20) 140 % of control [5 of 6 alive]; (dose: 200.0 mg/kg/injection, schedule: Q01DX009 (ip), vehicle: saline with Tween-80, evaluated on day 30) 135 % of control. Further, the survivor count (dose: 400.0 mg/kg/injection, schedule: Q01DX009 (ip), vehicle: saline with Tween-80) was 0 of 6.
`CN=C(N)N/N=C(\c1ccc(Cl)cc1)c1ccc([N+](=O)[O-])cc1Cl`: the survivor count under setting [17] is 1 of 6.
Regarding `COCC(O)Cn1ccnc1N=Nc1ccccc1` (stereo not given), under setting [15], the survivor count is 4 of 6.
As to `CC([OH2+])CNCCN.CC([OH2+])CNCCN.O=[N+]([O-])[O-].[Ni+2]` (stereo not given), the survivor count is, setting by setting: under setting [6], 6 of 6; under setting [7], 6 of 6.
As for `COc1ccc2sc3c(C)ccc(NCCC4CCCN5CCCCC45)c3c(=O)c2c1` (stereo not given), the survivor count under setting [9] is reported as 6 of 6.
The same measure, in the same setting: as for `C=CC1CCC[S+]1CC(=O)C(Cl)(Cl)Cl` (stereo not given), the figure is 0 of 6.
Regarding `Cc1cc2ccccc2c[n+]1CCCCCCCCI`, the survivor count reads like this: under setting [4], 1 of 5; under setting [5], 0 of 5.
Consider `COc1cc2ccc(=O)oc2cc1O`, for which, under “dose: 400.0 mg/kg/injection, schedule: Q01DX009 (ip), vehicle: suspension in saline”, the T/C was 130 % of control.
As for `C/C(=N/N(C)C)c1ccc(Cl)cc1`, the T/C (dose: 100.0 mg/kg/injection, schedule: Q01DX001 (ip), vehicle: Klucel (hydroxypropylcellulose) (HPC)) was 132 % of control.
For `O/N=C/C(Cl)=N\O`, the survivor count (dose: 400.0 mg/kg/injection, schedule: Q04DX002 (ip), vehicle: saline with Tween-80) was 0 of 6.
Turning to `C[N+]1(C)CC=CCC1c1ccccc1` (stereo not given), the survivor count is 0 of 6 (dose: 50.0 mg/kg/injection, schedule: Q01DX005 (ip), vehicle: saline); 0 of 6 (dose: 100.0 mg/kg/injection, schedule: Q01DX005 (ip), vehicle: saline); 0 of 6 under setting [16].
Regarding `NC(=S)SCCC(=O)N1CCCCC1`, the survivor count was 3 of 5 under setting [11] and 1 of 5 under setting [12].
In the case of `CC(=O)N=c1ccc2nc3c(cc(N)c4ccccc43)oc-2c1`, the survivor count is on record as 5 of 6 (dose: 60.0 mg/kg/injection, schedule: Q01DX005 (ip), vehicle: Klucel (hydroxypropylcellulose) (HPC)); 5 of 6 under setting [13]; 4 of 6 under setting [14].
Take `COC(=O)c1c2cc(C(C)(C)C)cc-2c(N(C)C)nc(N(C)C)c1C(=O)OC`: the survivor count under setting [14] is 6 of 6.
Consider `COc1ccc(OC(=O)c2ccccc2)c2c1C(=O)C=CC2=O`, for which the survivor count is 3 of 5 (dose: 12.5 mg/kg/injection, schedule: Q01DX005 (ip), vehicle: saline with Tween-80); 0 of 5 (dose: 25.0 mg/kg/injection, schedule: Q01DX005 (ip), vehicle: saline with Tween-80); 0 of 5 under setting [3]; 0 of 5 under setting [4]; 0 of 5 under setting [5].
As for `O=C1/C(=C/c2ccc3c(c2)OCO3)SC(=S)N1c1ccc(Cl)c(Cl)c1`, under setting [10], the survivor count is reported as 0 of 5.
Regarding `CC(=O)N(C)O`, the T/C reads like this: under setting [8], 127 % of control (2×); (dose: 400.0 mg/kg/injection, schedule: Q01DX005 (ip), vehicle: saline with Tween-80) 142 % of control.
`CC1(C)N=C(N)N=C(N)N1c1ccc(CCCCc2ccc(S(=O)(=O)F)cc2)c(Cl)c1`: the survivor count was 6 of 6 (dose: 100.0 mg/kg/injection, schedule: Q04DX003 (ip), vehicle: saline); 0 of 6 under setting [18]; 1 of 6 (dose: 400.0 mg/kg/injection, schedule: Q04DX003 (ip), vehicle: saline).
Consider `CN=C(N)N/N=C/c1c2ccccc2c(Cl)c2ccccc12`, for which the survivor count is given as 1 of 6 (dose: 50.0 mg/kg/injection, schedule: Q04DX002 (ip), vehicle: saline with Tween-80) and 1 of 6 under setting [17].
`C[C@H](N)[C@H](O)c1cccc(O)c1`: the survivor count (dose: 12.5 mg/kg/injection, schedule: Q01DX005 (ip), vehicle: saline) is 3 of 5.
For `COC(=O)C(NP(=O)(NC(C(=O)OC)c1ccccc1)N(CCCl)CCCl)c1ccccc1` (stereo not given), the survivor count under setting [1] is 6 of 6, the survivor count under setting [2] is reported as 6 of 6 and the survivor count under setting [15] is 6 of 6.
Regarding `CCCCNP(=O)(N1CC1CC)N1CC1CC` (stereo not given), the T/C reads like this: (dose: 132.0 mg/kg/injection, schedule: Q04DX003 (ip), vehicle: saline) 131 % of control; under setting [18], 136 % of control.
